Laboratory results reported in publication PMC5704379.
No constants are given. Whether binding was seen depends on the method and setting. Binding seen in cells or lysates may run through a third protein. A result given as binding can be weak or reduced; the word gives no strength.

Tests used:
Assay in all cases: co-IP; 293 cells cotransfected with myc-tagged full-length Sertad1 or single domains and pcDNA3.1-iASPP; lysates precipitated with anti-myc, blotted with anti-iASPP
[1] = target: Sertad1 PHD-Bromo domain with myc tag
[2] = target: Sertad1 C terminal domain with myc tag
[3] = target: Sertad1 Cyclin-A domain with myc tag

Measured: binding

B1: iASPP (pcDNA3.1-iASPP) (protein, UniProt Q8WUF5 1-828)
chain: MDSEAFQSARDFLDMNFQSLAMKHMDLKQMELDTAAAKVDELTKQLESLWSDSPAPPGPQAGPPSRPPRYSSSSIPEPFGSRGSPRKAATDGADTPFGRSESAPTLHPYSPLSPKGRPSSPRTPLYLQPDAYGSLDRATSPRPRAFDGAGSSLGRAPSPRPGPGPLRQQGPPTPFDFLGRAGSPRGSPLAEGPQAFFPERGPSPRPPATAYDAPASAFGSSLLGSGGSAFAPPLRAQDDLTLRRRPPKAWNESDLDVAYEKKPSQTASYERLDVFARPASPSLQLLPWRESSLDGLGGTGKDNLTSATLPRNYKVSPLASDRRSDAGSYRRSLGSAGPSGTLPRSWQPVSRIPMPPSSPQPRGAPRQRPIPLSMIFKLQNAFWEHGASRAMLPGSPLFTRAPPPKLQPQPQPQPQPQSQPQPQLPPQPQTQPQTPTPAPQHPQQTWPPVNEGPPKPPTELEPEPEIEGLLTPVLEAGDVDEGPVARPLSPTRLQPALPPEAQSVPELEEVARVLAEIPRPLKRRGSMEQAPAVALPPTHKKQYQQIISRLFHRHGGPGPGGPEPELSPITEGSEARAGPPAPAPPAPIPPPAPSQSSPPEQPQSMEMRSVLRKAGSPRKARRARLNPLVLLLDAALTGELEVVQQAVKEMNDPSQPNEEGITALHNAICGANYSIVDFLITAGANVNSPDSHGWTPLHCAASCNDTVICMALVQHGAAIFATTLSDGATAFEKCDPYREGYADCATYLADVEQSMGLMNSGAVYALWDYSAEFGDELSFREGESVTVLRRDGPEETDWWWAALHGQEGYVPRNYFGLFPRVKPQRSKV
binds: [1] | [2] | [3]
